# In PubChem BioAssay AID720504 (National Center for Advancing Translational Sciences (NCATS), 2013):
# Protein sequences, listed by entry. Tags and fused reporters are not part of them.
# UniProt P53350, whole entry, looked up: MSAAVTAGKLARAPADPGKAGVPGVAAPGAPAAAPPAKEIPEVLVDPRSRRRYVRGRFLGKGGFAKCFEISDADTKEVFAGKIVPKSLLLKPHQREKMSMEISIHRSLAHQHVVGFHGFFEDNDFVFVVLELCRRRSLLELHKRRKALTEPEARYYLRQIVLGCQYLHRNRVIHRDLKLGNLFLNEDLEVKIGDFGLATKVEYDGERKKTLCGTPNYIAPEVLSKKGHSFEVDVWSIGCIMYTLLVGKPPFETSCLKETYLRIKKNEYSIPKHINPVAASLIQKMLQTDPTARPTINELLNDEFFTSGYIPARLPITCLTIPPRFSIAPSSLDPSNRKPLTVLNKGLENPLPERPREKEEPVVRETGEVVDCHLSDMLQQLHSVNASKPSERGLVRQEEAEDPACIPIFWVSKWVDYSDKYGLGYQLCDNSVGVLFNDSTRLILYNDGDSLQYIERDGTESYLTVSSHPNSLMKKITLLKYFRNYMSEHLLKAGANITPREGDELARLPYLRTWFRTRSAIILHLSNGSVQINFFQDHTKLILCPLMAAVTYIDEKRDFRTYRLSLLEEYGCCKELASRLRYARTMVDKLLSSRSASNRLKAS
# Among all 360,000 compounds or so, about 10,000 (2.8%) were called active. The inconclusive results got no clear call from the source; some entries with a clear call stand among them for comparison. Calls follow the shape of the dose curve; as a rule, active = well fitted inhibition curve with a large enough effect; inconclusive = small, poorly fitted or top-dose-only effect; inactive = flat fitted curve, though single readings scatter. Potencies of inconclusive entries are doubtful fits and often do not repeat.
# Biological target: Serine/threonine-protein kinase PLK1 (Homo sapiens) (UniProt P53350)
# Experiment: qHTS for Inhibitors of PLK1-PDB (polo-like kinase 1 - polo-box domain): Primary Screen; also: nearly all actives have a fitted effect of over 65% in size; as to max response, negative = inhibition: series mostly up to about 57 µM
# Conditions: Plk1 PBD binding of FITC phosphopeptide, fluorescence polarization
# % is scaled to controls: 0 for no effect and ±100 for the full control effect; potency is read from the fitted curve at half-maximal effect.
SMILES,Potency,"max response, negative = inhibition"
NC(=S)n1[nH]c(-c2ccc([N+](=O)[O-])cc2)c(N=Nc2ccc(O)cc2)c1=O,"inconclusive: 15 µM [inhibitor, partial curve]",–
CCCN1C/C(=C/c2cccc([N+](=O)[O-])c2)C(=O)/C(=C/c2cccc([N+](=O)[O-])c2)C1,–,inconclusive: -34% [inhibitor]
C=C1C(=O)C23CCC4C(C)(C(=O)OC)CCCC4(C)C2CCC1(O)C3 (stereo not given),"inconclusive: 5.32 µM [inhibitor, partial curve]",–
CCn1c(=O)c(=O)[nH]c2cc(C(=O)NC3CCCC3)ccc21,active: 29.9 µM,–
Nc1ncc(-c2ccccc2)n1CC1CCCO1 (stereo not given),"inconclusive: 33.6 µM [inhibitor, single point]",–
COc1cc([N+](=O)[O-])ccc1NC(=O)Cc1ccccc1,–,inactive: -12.8%
CCCn1nc(C(=O)Oc2ccc3c(C)cc(=O)oc3c2)c2ccccc2c1=O,"inconclusive: 18.9 µM [inhibitor, partial curve]",–
CCc1cc(C(c2ccc(OC)c(OC)c2)N2CCOCC2)c(NC(=O)c2ccccc2)s1 (stereo not given),"inconclusive: 2.99 µM [inhibitor, full curve]",–
CCCN1CC=C2C(C#N)=C(N)C(C#N)(C#N)C(c3cccc(OC)c3OC)C2C1 (stereo not given),"inconclusive: 23.8 µM [inhibitor, partial curve]",–
CCOC(=O)c1sc(NC(=O)c2cccc(S(=O)(=O)N3CCc4ccccc43)c2)c(C#N)c1C,"inconclusive: 26.7 µM [inhibitor, single point]",–
CCOC(=O)CN1C(=O)C(O)=C(C(C)=O)C1c1ccc([N+](=O)[O-])cc1 (stereo not given),–,inactive: -1.04%
CCN1CCN(C(CNS(=O)(=O)c2ccc(Cl)cc2)c2ccccc2)CC1 (stereo not given),"inconclusive: 33.6 µM [inhibitor, partial curve]",–
Cc1ccc(NC(=O)NCc2nc3ccccc3n2C)cc1,–,inactive: -16.7%
O=C(Nc1nc(-c2ccccc2)cs1)c1ccc(Br)o1,active: 29.9 µM,–
Cc1ccc(NC(=O)C2C3CCC(O3)C2C(=O)O)cc1C (stereo not given),–,inactive: -6.56%
OCCOCCN1CCN(C(=S)Nc2ccccc2)CC1,"inconclusive: 29.9 µM [inhibitor, single point]",–
COc1ccc(NC(=O)CN(C)C(=O)CSCC(=O)Nc2ccc(C)cc2)cc1,–,inconclusive: -37.1% [inhibitor]
Oc1ccc(C2C=C(c3ccc(F)cc3)Nc3ncnn32)cc1 (stereo not given),"inconclusive: 26.7 µM [inhibitor, partial curve]",–
CCN(Cc1ccccc1)C(=O)CS(=O)(=O)c1ccccc1,–,inactive: -12.1%
CCOC(=O)c1c(NC(=S)Nc2cccnc2)sc(C)c1C,"inconclusive: 29.9 µM [inhibitor, single point]",–
CCOC(=O)c1sc2nc3n(c(=O)c2c1C)CCC(C)CC3 (stereo not given),active: 29.9 µM,–
O=C(c1cnc(Cl)c(Cl)c1)N1CCN(S(=O)(=O)c2cccs2)CC1,–,inactive: -14.1%
O=C(NNS(=O)(=O)c1ccccc1Cl)C1COc2ccccc2O1 (stereo not given),active: 18.9 µM,–
CCSc1nnc(N2C(=O)C(O)=C(C(=O)c3ccco3)C2c2cccc(OC)c2)s1 (stereo not given),"inconclusive: 5.97 µM [inhibitor, partial curve]",–

# 5 of these compounds, set out differently.
SMILES	Potency	max response, negative = inhibition
CCCN1C/C(=C/c2cccc([N+](=O)[O-])c2)C(=O)/C(=C/c2cccc([N+](=O)[O-])c2)C1	–	inconclusive: -34% [inhibitor]
CCn1c(=O)c(=O)[nH]c2cc(C(=O)NC3CCCC3)ccc21	active: 29.9 µM	–
Oc1ccc(C2C=C(c3ccc(F)cc3)Nc3ncnn32)cc1 (stereo not given)	inconclusive: 26.7 µM [inhibitor, partial curve]	–
CCOC(=O)c1sc2nc3n(c(=O)c2c1C)CCC(C)CC3 (stereo not given)	active: 29.9 µM	–
O=C(c1cnc(Cl)c(Cl)c1)N1CCN(S(=O)(=O)c2cccs2)CC1	–	inactive: -14.1%

# Remaining list, next part

SMILES,Potency,"max response, negative = inhibition"
COCC(C)n1c(C)cc(C(=O)COC(=O)CNC(=O)c2ccccc2)c1C (stereo not given),"inconclusive: 18.9 µM [inhibitor, partial curve]",–
C/C(=N\O)C(C)(C)Nc1ccc(Cl)cc1,"inconclusive: 0.0075 µM [inhibitor, full curve, poor fit]",–
C#CCN(C[C@H]1[C@H](OC(=O)Nc2c(C)noc2C)[C@H](OC(=O)Nc2c(C)noc2C)C[C@H]2C(=O)N(c3ccccc3)C(=O)[C@@H]12)S(=O)(=O)c1ccc(C)cc1,–,inactive: -4.94%
COc1cccc(C=Nc2ccc(N3CCOCC3)cc2)c1O,–,inactive: -15.2%
Cc1c([N+](=O)[O-])cc(C(=O)Oc2cccc(C(=S)N3CCOCC3)c2)cc1[N+](=O)[O-],"inconclusive: 33.6 µM [inhibitor, partial curve]",–
O=C(CCS(=O)(=O)c1ccccc1Cl)NCc1ccc(F)cc1,"inconclusive: 18.9 µM [inhibitor, partial curve]",–
CCN(c1ccccc1)S(=O)(=O)c1ccc(Cl)c(NC(=O)CN(C)Cc2cccc(F)c2)c1,–,inactive: 0.981%
O[C@@H]1CN(CC2CCCCC2)[C@@H](c2ccccc2)C[C@H]1n1cc(-c2ccc(F)cc2)nn1,–,inactive: 2.98%
CCOC(=O)c1c(NC(=S)Nc2ccc(OC)cc2)sc2c1CCC2,"inconclusive: 18.9 µM [inhibitor, partial curve]",–
c1ccc(Cn2cnc3ccccc32)cc1,–,inactive: -5.41%
N#CC1=C(N)S[C@H](C(=O)C23CC4CC(CC(C4)C2)C3)[C@H]1c1ccncc1,"inconclusive: 29.9 µM [inhibitor, single point]",–
COC(=O)CS(=O)(=O)c1cccc2cccnc12,active: 29.9 µM,–
CCN(CC)C(=O)c1sc(NC(=O)c2ccoc2C)c(C(=O)OC)c1C,active: 21.2 µM,–
Cc1ccc(-c2cc(C(F)F)n3ncc(C(=O)Nc4c(C)nn(Cc5ccccc5Cl)c4C)c3n2)cc1,"inconclusive: 26.7 µM [inhibitor, single point]",–
O=C1[C@@H]2C(Cc3ccc(O)cc3)NC3(C(=O)Nc4ccc(F)cc43)[C@@H]2C(=O)N1c1ccccc1 (stereo not given in full),–,inactive: -17.4%
Cc1ccc(SCc2c(C#N)c3ccccc3n2C)cc1,active: 5.32 µM,–
CC(=O)Nc1ccc(C(=O)OCC(=O)N(Cc2ccccc2)C(C)(C)C)cc1,–,inactive: -3.3%
O=C(Nc1ccccc1C(=O)N1CCCCC1)NC1CCCCC1,active: 21.2 µM,–
CCCCCCN1CCN(C2CN(Cc3ccc(F)cc3)S(=O)(=O)C2)CC1 (stereo not given),–,inactive: 4%
COc1ccc(C(=O)Nc2ccc(NC(=O)c3cccs3)cn2)cc1,–,inactive: -0.173%
Cc1c(C(=O)N2CCCCC2)c(S(=O)(=O)N2c3ccccc3CC2C)c(C)n1C (stereo not given),"inconclusive: 26.7 µM [inhibitor, partial curve]",–
CC(=O)Nc1ccc(-c2csc(NCc3ccco3)n2)cc1,–,inconclusive: -34.9% [inhibitor]
CCCCNC(=O)Oc1ccc(C(=O)N2c3ccccc3NC(=O)C2C)cc1 (stereo not given),"inconclusive: 9.47 µM [inhibitor, partial curve]",–
COc1ccc(N2CC(C(=O)Nc3nnc(SCC(=O)N4CCCC4)s3)CC2=O)cc1 (stereo not given),–,inactive: -21.7%

SMILES,Potency,"max response, negative = inhibition"
COCCCNC(=O)C(=O)NCC(c1ccco1)N1CCN(c2ccc(OC)cc2)CC1 (stereo not given),"inconclusive: 29.9 µM [inhibitor, single point]",–
O=C(Nc1ccc([N+](=O)[O-])c(NC(=O)C2CCCO2)c1)C1CCCO1 (stereo not given),"inconclusive: 26.7 µM [inhibitor, single point]",–
Cc1cc(C)nc(SCc2cc(=O)c(OC(=O)c3cc([N+](=O)[O-])ccc3Cl)co2)n1,"inconclusive: 26.7 µM [inhibitor, partial curve]",–
O=C1C=C(c2ccccc2)C[C@@H](c2ccc(Cl)cc2)C1,"inconclusive: 26.7 µM [inhibitor, single point]",–
Nc1nc(SCC(=O)Nc2cc(-c3ccccc3)nn2-c2ccccc2)n[nH]1,–,inactive: -0.837%
CN(C)S(=O)(=O)c1ccc(C(=O)NCC2CC2(Cl)Cl)cc1 (stereo not given),active: 23.8 µM,–
CC(=O)Nc1ccc(N2C(=O)CSC2c2ccccc2[N+](=O)[O-])cc1 (stereo not given),"inconclusive: 21.2 µM [inhibitor, partial curve]",–
O=c1c2ccccc2sn1-c1cc(S(=O)(=O)N2CCOCC2)ccc1N1CCCC1,active: 2.99 µM,–
Oc1ccc(C[C@@H]2CNCCN2CCC23CC4CC(CC(C4)C2)C3)cc1,–,inactive: 1.14%
CCCC(C)(C)C(=O)N1CCC1(C)C(=O)NS(=O)(=O)c1cccc(Cl)c1 (stereo not given),–,inactive: -4.72%
O=C(O)c1cccc(-n2cccc2/C=C2\SC(=O)N(Cc3ccccc3F)C2=O)c1,"inconclusive: 26.7 µM [inhibitor, single point]",–
CC(C)(C)C(=O)OCc1nc(-c2ccc(C(F)(F)F)cc2)cs1,"inconclusive: 29.9 µM [inhibitor, single point]",–
Cc1c(N=C2NC(=O)/C(=C/c3ccc(O)cc3)S2)c(=O)n(-c2ccccc2)n1C,–,inactive: 5.06%
CCc1cc(=O)oc2cc3occ(C)c3cc12,–,inactive: -3.16%
Cc1ccc(C)c(OCC(=O)NCC(C)C)c1C,"inconclusive: 21.2 µM [inhibitor, partial curve]",–
Nc1c(C(=O)O)sc2nc(-c3ccccc3)cc(-c3ccc(Cl)cc3)c12,"inconclusive: 37.7 µM [inhibitor, single point]",–
CC(C)NC(=O)Nc1cccc2c1O[C@H](CN(C)C(=O)NC1CCCCC1)[C@H](C)CN([C@H](C)CO)C2=O,"inconclusive: 21.2 µM [inhibitor, partial curve]",–
O=C(NCCCN1CCOCC1)C(=O)N/N=C/c1ccc2c(c1)OCO2,"inconclusive: 21.2 µM [inhibitor, single point]",–
Cc1cc(Br)ccc1NC(=O)C1C2CCC(O2)C1C(=O)O (stereo not given),–,inactive: -11.7%
Cc1cc(/C=C2/NC(=O)NC2=O)c(C)n1-c1ccccn1,"inconclusive: 23.8 µM [inhibitor, single point]",–
COC(=O)C1CSC2c3ccccc3C(=O)N12 (stereo not given),"inconclusive: 26.7 µM [inhibitor, partial curve]",–
CCOC(=O)Cn1nc(C)c(NC(=O)CCc2ccccc2)c1C,"inconclusive: 8.44 µM [inhibitor, partial curve]",–
